Results from cells or extracts need not show a direct contact. For some assays here: No signal at the amounts used counts as a negative. For some assays here: Construct, isoform or probe ends are uncertain for at least one entry. For some assays here: A weaker result is weaker than the reference pair of the same experiment.

From paper PMC10925046 come the findings set out here.

Experiment in all cases: pull-down
The target in series [1] is LSD1 deltaIDR K661A (flag) (UniProt O60341). The following applies: not as strong as WT; pull-down: 20 mM Tris pH 7.5, 50 mM NaCl, 2 mM MgCl2, 0.1% Tween-20, 4 C; protein in a lysate after overexpression; residues 171-852; protein details: Flag; label: biotin (5' per name 52-Bio).
Series [2] addresses LSD1 deltaIDR (flag) (UniProt O60341). The note with it: slightly less than full length; pull-down: 20 mM Tris pH 7.5, 50 mM NaCl, 2 mM MgCl2, 0.1% Tween-20, 4 C; protein in a lysate after overexpression; residues 171-852; protein details: Flag; label: biotin (5' per name 52-Bio).
Series [3] addresses LSD1 full length (flag) (UniProt O60341). The note with it: pull-down: 20 mM Tris pH 7.5, 50 mM NaCl, 2 mM MgCl2, 0.1% Tween-20, 4 C; protein in a lysate after overexpression; residues 1-852; protein details: Flag; label: biotin (5' per name 52-Bio).
For series [4], the target named is LSD1 IDR (flag) (UniProt O60341). The note with it: pull-down: 20 mM Tris pH 7.5, 50 mM NaCl, 2 mM MgCl2, 0.1% Tween-20, 4 C; protein in a lysate after overexpression; residues 1-170; protein details: Flag; label: biotin (5' per name 52-Bio).
For series [5], the target named is LSD1 deltaIDR 3KE (flag) K355E,K357E,K359E (UniProt O60341). The note with it: pull-down: 20 mM Tris pH 7.5, 50 mM NaCl, 2 mM MgCl2, 0.1% Tween-20, 4 C; protein in a lysate after overexpression; residues 171-852; protein details: Flag; label: biotin (5' per name 52-Bio).

In the case of “UUAGGGUUAGGGUUAGGGUUAGGGUUAGGGUUAGGGUUAGGGUUAGGG [biotin-TERRA (UUAGGG)8]”, the binding result in series [1] was “binds more weakly”; in series [2], “binds more weakly”; in series [3] it was “binds”; in series [4], “no binding”; in series [5] it was “no binding”.
